According to the supplement of paper PMC8612539:
This continues a long series; more values of the same kind are listed elsewhere.

Tested on: Escherichia coli
Experiment: minimum inhibitory concentration (MIC)
Protocol: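 Broth microdilution MIC (Sensititre BOPO7F bovine plate, CLSI methods) of 19 antimicrobials against field isolates of P. multocida, M. haemolytica, H. somni (deep nasopharyngeal swabs) and E. coli, Enterococcus spp. (rectal swabs) from weaned dairy heifers. Incubation 16-24 h at 35 C. MIC is the lowest concentration preventing visible growth. Values with <= or > lie at the tested range limits. Trimethoprim-sulfamethoxazole is given as the trimethoprim component of a 1:19 mixture.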

Measured: minimum inhibitory concentration

CCC[C@@H]1C[C@@H](C(=O)N[C@@H]([C@H]2O[C@H](SC)[C@H](O)[C@@H](O)[C@H]2O)[C@H](C)Cl)N(C)C1 [Clindamycin]
> 16 µg/mL: isolate (source animal id): 1 | isolate (source animal id): 2 | isolate (source animal id): 3 | isolate (source animal id): 4 | isolate (source animal id): 5 | isolate (source animal id): 6 | isolate (source animal id): 7 | isolate (source animal id): 17 | isolate (source animal id): 18 | isolate (source animal id): 19 | isolate (source animal id): 20 | isolate (source animal id): 21 | isolate (source animal id): 22 | isolate (source animal id): 23 | isolate (source animal id): 24 | isolate (source animal id): 25 | isolate (source animal id): 26 | isolate (source animal id): 27 | isolate (source animal id): 28 | isolate (source animal id): 29 | isolate (source animal id): 30 | isolate (source animal id): 31 | isolate (source animal id): 32 | isolate (source animal id): 33 | isolate (source animal id): 34 | isolate (source animal id): 35 | isolate (source animal id): 36 | isolate (source animal id): 37 | isolate (source animal id): 38 | isolate (source animal id): 39 | isolate (source animal id): 40 | isolate (source animal id): 41 | isolate (source animal id): 42 | isolate (source animal id): 43 | isolate (source animal id): 44 | isolate (source animal id): 45 | isolate (source animal id): 46 | isolate (source animal id): 47 | isolate (source animal id): 48 | isolate (source animal id): 49 | isolate (source animal id): 50 | isolate (source animal id): 51 | isolate (source animal id): 52 | isolate (source animal id): 53 | isolate (source animal id): 54 | isolate (source animal id): 55 | isolate (source animal id): 56 | isolate (source animal id): 57 | isolate (source animal id): 58 | isolate (source animal id): 59 | isolate (source animal id): 60 | isolate (source animal id): 61 | isolate (source animal id): 62 | isolate (source animal id): 63 | isolate (source animal id): 64 | isolate (source animal id): 65 | isolate (source animal id): 66 | isolate (source animal id): 67 | isolate (source animal id): 68 | isolate (source animal id): 69 | isolate (source animal id): 70 | isolate (source animal id): 71 | isolate (source animal id): 72 | isolate (source animal id): 73 | isolate (source animal id): 74 | isolate (source animal id): 75 | isolate (source animal id): 76 | isolate (source animal id): 77 | isolate (source animal id): 78 | isolate (source animal id): 79 | isolate (source animal id): 80 | isolate (source animal id): 81 | isolate (source animal id): 82 | isolate (source animal id): 83 | isolate (source animal id): 84 | isolate (source animal id): 85 | isolate (source animal id): 86 | isolate (source animal id): 87 | isolate (source animal id): 88 | isolate (source animal id): 89 | isolate (source animal id): 90 | isolate (source animal id): 91 | isolate (source animal id): 92 | isolate (source animal id): 93 | isolate (source animal id): 94 | isolate (source animal id): 95 | isolate (source animal id): 96 | isolate (source animal id): 97 | isolate (source animal id): 189 | isolate (source animal id): 190 | isolate (source animal id): 191 | isolate (source animal id): 192 | isolate (source animal id): 193 | isolate (source animal id): 194 | isolate (source animal id): 195 | isolate (source animal id): 196 | isolate (source animal id): 197 | isolate (source animal id): 198 | isolate (source animal id): 199 | isolate (source animal id): 200 | isolate (source animal id): 201 | isolate (source animal id): 202 | isolate (source animal id): 203 | isolate (source animal id): 204 | isolate (source animal id): 205 | isolate (source animal id): 206 | isolate (source animal id): 207 | isolate (source animal id): 208 | isolate (source animal id): 209 | isolate (source animal id): 210 | isolate (source animal id): 211 | isolate (source animal id): 212 | isolate (source animal id): 213 | isolate (source animal id): 214 | isolate (source animal id): 215 | isolate (source animal id): 216 | isolate (source animal id): 217 | isolate (source animal id): 218 | isolate (source animal id): 219 | isolate (source animal id): 220
